Data published in US20080293796A1, “Parenteral and oral formulations of benzimidazoles” (priority 2003, published 2008).

Assay: Homogeneity study of Mbz distribution in rat organs
Conditions: for Site Variations: n = 3; for Mean radioactivity: three sites

SMILES: COC(=O)Nc1nc2ccc(C(=O)c3ccccc3)cc2[nH]1 [MZ, methyl 5-benzoylbenzimidazole-2-carbamate]
- Site Variations (rat brain): 7.96%
- Mean radioactivity (rat brain): 358.27 CPM/0.2 g
- Site Variations (rat heart): 14.02%
- Mean radioactivity (rat heart): 1300.72 CPM/0.2 g
- Site Variations (rat kidneys): 3.01%
- Mean radioactivity (rat kidneys): 1192.13 CPM/0.2 g
- Site Variations (rat liver): 3.44%
- Mean radioactivity (rat liver): 41978.90 CPM/0.2 g
- Site Variations (rat lung): 5.67%
- Mean radioactivity (rat lung): 22429.33 CPM/0.2 g
- Site Variations (rat spleen): 5.15%
- Mean radioactivity (rat spleen): 31279.43 CPM/0.2 g
